{"source": "patent US8481032B2", "about": "“Lipocalin-2 antibodies for methods of treatment” (The University of Hong Kong, priority 2006, dated 2013)", "molecules": {"B1": {"name": "Lipocalin-2: recombinant murine lipocalin-2 expressed in BL21 cells, His6 tag and endotoxin removed (protein)", "chain": "QDSTQNLIPAPSLLTVPLQPDFRSDQFRGRWYVVGLAGNAVQKKTEGSFTMYSTIYELQENNSYNVTSILVRDQDQGCRYWIRTFVPSSRAGQFTLGNMHRYPQVQSYNVQVATTDYNQFAMVFFRKTSENKQYFKITLYGRTKELSPELKERFTRFAKSLGLKDDNIIFSVPTDQCIDN", "modifications": "left off: small tags and cut ends", "notes": "recombinant murine lipocalin-2 expressed in BL21 cells, His6 tag and endotoxin removed"}}, "system": "C57 mice", "test": "Chronic treatment of C57 mice with recombinant lipocalin-2: body weight, food intake, metabolic parameters, ipGTT and ITT", "type": "in vivo, mouse", "conditions": "recombinant lipocalin-2 5 mg/kg i.p. twice a day, n = 5", "procedure": "Fasting (16 hr) plasma glucose levels and triglyceride (TG) concentrations were measured by using a Glucose (GO) assay kit (Sigma) and Triglyceride GPO reagent (Pointe Scientific Inc., Lincoln Park, Mich., USA) respectively. Fasting serum insulin concentrations were quantified by using the commercial ELISA kits from Mercodia AB (Uppsala, Sweden). Serum total cholesterol and free fatty acids (FFAs) were analyzed by using the kits from Wako (Richmond, Va., USA) and Roche Diagnostics respectively. TG contents in liver and soleus muscle were analyzed as described elsewhere (Ellis, B. A et al., Am J Physiol Endocrinol Metab. 279:E554-560 (2000); Xu, A., et al. J Clin Invest 112:91-100 (2003)).\nFor ipGTT, overnight fasted mice (16 hr) were given a glucose load by intraperitoneal injection (1 g glucose/kg body weight). For ITT, mice were starved for 6 h, and then intraperitonally injected with insulin (1 U/kg body weight). Plasma glucose levels were measured at different time points as indicated.\nTo evaluate the effect of lipocalin-2 on glucose homeostasis and insulin sensitivity, normal C57 mice were treated with murine lipocalin-2 by intraperitoneal injection of the recombinant protein (5 mg protein/kg body weight, twice a day at 12 hr intervals).", "data": [{"molecule": "B1", "values": [{"measurement": "Daily average food intake", "setting": "4 weeks", "value": "1.75 ± 0.20", "unit": "g"}, {"measurement": "Body weight gains over 4 weeks", "value": "2.63 ± 0.19", "unit": "g"}]}]}
